From paper PMC12787483 come the findings set out here.

The chains behind the UniProt entries cited, without tags or fusion partners.
UniProt Q9SXZ2: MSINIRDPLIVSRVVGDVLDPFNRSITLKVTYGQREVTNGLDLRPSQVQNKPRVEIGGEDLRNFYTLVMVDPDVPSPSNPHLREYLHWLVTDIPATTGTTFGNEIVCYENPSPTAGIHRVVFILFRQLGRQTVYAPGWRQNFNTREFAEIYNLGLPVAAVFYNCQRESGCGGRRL
UniProt P35631: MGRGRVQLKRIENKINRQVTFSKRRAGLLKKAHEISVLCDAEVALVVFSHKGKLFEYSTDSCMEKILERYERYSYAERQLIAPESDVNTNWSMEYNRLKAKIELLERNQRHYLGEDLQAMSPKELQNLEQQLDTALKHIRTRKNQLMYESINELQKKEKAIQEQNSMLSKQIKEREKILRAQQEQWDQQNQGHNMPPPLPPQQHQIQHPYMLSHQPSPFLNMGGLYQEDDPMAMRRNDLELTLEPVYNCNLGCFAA

This test concerns the target Arabidopsis AtFT (FLOWERING LOCUS T), yeast two-hybrid fusion (Arabidopsis thaliana) (UniProt Q9SXZ2). Briefly: two-hybrid; GAL4 system; bait in pGBKT7, prey in pGADT7; co-transformed yeast grown on SD/-Leu/-Trp, then on quadruple dropout medium (SD/-Leu/-Trp/-His/-Ade + x-α-gal; methods: with 20 mM 3-AT), 30 °C.

Results are given in words; binding and its absence hold for the method and conditions named. Some results given as binding are weak or reduced against the parent protein; the word gives no strength.

“Arabidopsis AtAP1 (APETALA1), yeast two-hybrid fusion (from UniProt P35631 1-256)”: the binding result is “binds”.
